# Test results from PMC8901441.
# By UniProt entry, the sequences of proteins in these tests, tags left out.
# UniProt Q16611: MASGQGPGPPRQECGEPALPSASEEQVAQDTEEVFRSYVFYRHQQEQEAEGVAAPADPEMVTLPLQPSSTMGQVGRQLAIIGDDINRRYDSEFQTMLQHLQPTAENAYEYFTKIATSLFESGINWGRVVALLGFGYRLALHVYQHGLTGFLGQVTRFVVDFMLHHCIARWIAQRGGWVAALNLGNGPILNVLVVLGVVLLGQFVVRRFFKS
# UniProt Q07812: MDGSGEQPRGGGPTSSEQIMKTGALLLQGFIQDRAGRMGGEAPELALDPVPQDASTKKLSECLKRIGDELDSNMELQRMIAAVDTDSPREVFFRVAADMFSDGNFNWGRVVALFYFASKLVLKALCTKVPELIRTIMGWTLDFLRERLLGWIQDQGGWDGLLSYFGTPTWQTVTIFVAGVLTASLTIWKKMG
# Results are given in words; binding and its absence hold for the method and conditions named. In cells and extracts the contact can be indirect. Here binding means that the protein was enriched with, or labelled near, the bait; the list need not be complete. No binding means not detected with the bait.
# Experiments:
# FLAG-APEX2-BAK = FLAG-APEX2-BAK (UniProt Q16611); experiment: condition: only healthy cells (no apoptosis induction); proximity labelling; as a2, but healthy cells (no apoptosis induction)
# FLAG-APEX2-BAX = FLAG-APEX2-BAX (UniProt Q07812); experiment: as above
Substance,binding (FLAG-APEX2-BAK),binding (FLAG-APEX2-BAX)
"BAX (endogenous, HeLa cells) (from UniProt Q07812 1-192)",no binding,–
"BAK (endogenous, HeLa cells) (from UniProt Q16611 1-211)",–,no binding
